# According to patent US8530465B2, “1, 2-disubstituted amido-anthraquinone derivatives, preparation method and application thereof” (National Defense Medical Center, priority 2010, dated 2013):
# Tested on: 60 kinds of different human cancer cells
# Test: NCI in vitro 60-cell Drug Screen, whole panel
# Type: cell-based
# Details: over tested cell lines; 1.00E−5 Molar
# Procedure: In brief, cellular protein levels were determined after 48 hours of drug exposure by sulforhodamine B colorimetry. Through the use of a time 0 cell control, the cell growth can be determined for each cell line thus allowing calculations of the 50% growth inhibitory concentration (GI50), the total growth inhibition (TGI), and the 50% lethal concentration (LC50). Comparison to plates not exposed to drug permits determination of concentration and times of exposure conferring 50% net growth inhibition (GI50), TGI, and 50% cell kill (LC50).
# From the data analysis it follows that approximately 95% of the actives (potent anticancer drugs) from the 60 cell line screen can be identified. By these criteria, five compounds (each with its certification number, refer to FIG. 4) of the invention were reported that having anticancer activity.
# The screening system in United State National Cancer Institute (NCI) is consisted of 60 kinds of different human cancer cells, which can be used to assay the growth-inhibiting ability or cell toxicity of a compound against various cancer and tumor at a certain concentration.
Compound,"Growth Percent, Delta","Growth Percent, Range"
"Cc1ccc(C(=O)Nc2c(NC(=O)CN3CCCC3)ccc3c2C(=O)c2ccccc2C3=O)cc1 [CC-38, 1-(4-methylbenzamido)-2-[2-(tetrahydro-1H-1-pyrrolyl)acetylamino]-anthra quinone]",43.19%,82.09%
"O=C(CCl)Nc1ccc2c(c1NC(=O)Cc1ccccc1)C(=O)c1ccccc1C2=O [CC-23, 1-[2-(phenyl)acetylamino]-2-(chloroacetamido)-anthraquinone]",105.03%,155.52%
"Cc1ccc(C(=O)Nc2ccc3c(c2NC(=O)c2ccc(C)cc2)C(=O)c2ccccc2C3=O)cc1 [CC-04, 1,2-bis-(4-methylbenzamido)-anthraquinone]",29.65%,76.37%
"Cc1ccc(C(=O)Nc2c(NC(=O)CN3CCN(C)CC3)ccc3c2C(=O)c2ccccc2C3=O)cc1 [CC-43, 1-(4-methylbenzamido)-2-[2-(4-methylpiperazino)acetylamino]-anthraquinone]",106.75%,183.68%
"Cc1ccc(C(=O)Nc2c(NC(=O)CCl)ccc3c2C(=O)c2ccccc2C3=O)cc1 [CC-12, 1-(4-methylbenzamido)-2-(chloroacetamido)-anthraquinone]",96.76%,229.24%
